# Measurements: article PMC9830511, “Flot2 acts as a novel mediator of podocyte injury in proteinuric kidney disease” (International Journal of Biological Sciences, 2023)
# No constants are given. Whether binding was seen depends on the method and setting. In cells and extracts the contact can be indirect. Tags and fused reporters may be left off the sequences shown.
# Molecular target: Glutathione S-transferase (GST) alone
# Experiment: pull-down; GST pull-down: GST-Flot2 (30-184) or GST on GST resin; His-podocin (128-284) pulled out of the lysates; immunoblot with anti-His; only the target purified
binder,measurement,value
"His-podocin (amino acids 128-284), SPFH domain (domain or fragment, UniProt Q91X05 128-284) KVVQEYERVIIFRLGHLLPGRAKGPGLFFFLPCLDTYHKVDLRLQTLEIPFHEVVTKDMFIMEIDAVCYYRMENASLLLSSLAHVSKAIQFLVQTTMKRLLAHRSLTEILLERKSIAQDVKVALDAVTCIWGIKVERTEIKDVRLPAGLQHSLAVEA",binding,no binding
